Measurements from publication PMC4742162.
Results are given in words; binding and its absence hold for the method and conditions named. Binding seen in cells or lysates may run through a third protein. A result given as binding can be weak or reduced; the word gives no strength. For some assays here: Tags and fused reporters may be left off the sequences shown.

What was measured:
[1] = molecular target: T1, endogenous SEPT2 (human (endogenous in MDA-MB 231)) (UniProt Q15019); assay: co-IP; MT fractions of Tr cells incubated with rabbit anti-SEPT2 antibody on protein G sepharose beads (non-specific serum as control); 10 mM Tris pH 7.5, 150 mM NaCl, 5 mM EDTA, 1% CHAPS; 4°C, 16 h; last two washes at 300 mM salt; immunoblot
T1 sequence: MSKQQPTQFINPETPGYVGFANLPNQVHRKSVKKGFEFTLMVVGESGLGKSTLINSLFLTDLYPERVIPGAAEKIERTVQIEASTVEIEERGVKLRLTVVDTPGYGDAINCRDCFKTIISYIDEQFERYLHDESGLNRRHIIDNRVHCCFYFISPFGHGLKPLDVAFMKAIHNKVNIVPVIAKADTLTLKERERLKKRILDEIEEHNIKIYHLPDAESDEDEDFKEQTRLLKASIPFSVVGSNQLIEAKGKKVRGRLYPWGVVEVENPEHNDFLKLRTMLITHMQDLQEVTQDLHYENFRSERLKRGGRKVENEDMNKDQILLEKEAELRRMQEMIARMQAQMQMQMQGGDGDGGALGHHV

[2] = molecular target: T2, YFP-tagged TTLL11 (UniProt A4Q9F4); assay: co-IP; MT fractions (MTs depolymerized by calcium) of transfected Tr cells incubated with anti-GFP/YFP-coated beads (GFP Trap_M); 10 mM Tris pH 7.5, 150 mM NaCl, 5 mM EDTA, 1% CHAPS; 4°C, 16 h; last two washes at 300 mM salt; immunoblot
T2 sequence: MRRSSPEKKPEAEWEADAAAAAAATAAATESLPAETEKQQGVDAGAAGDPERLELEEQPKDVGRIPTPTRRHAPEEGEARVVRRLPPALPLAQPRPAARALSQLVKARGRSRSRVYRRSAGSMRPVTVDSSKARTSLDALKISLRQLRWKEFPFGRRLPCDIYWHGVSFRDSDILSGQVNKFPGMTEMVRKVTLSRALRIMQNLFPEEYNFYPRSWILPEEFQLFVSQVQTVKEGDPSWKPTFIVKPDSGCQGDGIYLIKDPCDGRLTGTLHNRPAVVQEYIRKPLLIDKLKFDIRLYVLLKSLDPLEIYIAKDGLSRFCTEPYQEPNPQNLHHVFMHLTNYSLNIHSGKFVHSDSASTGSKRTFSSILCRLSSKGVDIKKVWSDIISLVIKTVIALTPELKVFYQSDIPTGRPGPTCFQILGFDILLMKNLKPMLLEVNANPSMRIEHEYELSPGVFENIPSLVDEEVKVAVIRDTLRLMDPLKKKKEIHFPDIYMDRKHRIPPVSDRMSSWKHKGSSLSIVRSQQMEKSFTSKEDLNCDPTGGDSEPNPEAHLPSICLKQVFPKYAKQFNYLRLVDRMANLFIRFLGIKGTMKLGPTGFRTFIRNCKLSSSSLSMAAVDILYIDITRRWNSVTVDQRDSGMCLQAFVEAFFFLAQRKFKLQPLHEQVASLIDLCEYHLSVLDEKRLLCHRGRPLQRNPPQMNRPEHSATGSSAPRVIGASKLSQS

| binding [1] | binding [2] | Substance |
| --- | --- | --- |
| binds | – | CCP1 (enzyme) |
| – | binds weakly | α-tubulin (human (endogenous in MDA-MB 231)) |
